Assay results as given in US7705144B2, “Dyes of improved optical brightness and/or fluorescence and compositions containing them” (priority 2007, dated 2010).

How the values were obtained:
[1] = Light absorption and fluorescence of dyes and kaolin powders; assay type: physicochemical; conditions: product deposited on kaolin
[2] = unmodified precursor dye; cited from earlier work

Row | Structure (SMILES) | fluorescence of the kaolin powder under a UV 254 lamp [1] | precursor dyes fluoresce in the red end of the spectrum [2]
1 | C=Cc1ccc(Nc2nc(OCCCCCCCC)nc(Oc3ccc(C(c4ccccc4)(c4ccccc4)c4ccccc4)cc3)n2)cc1 [Compound II] | fluoresces blue | 
2 | CC1CCC(Oc2nc(Oc3ccc4c(-c5ccccc5C(=O)O)c5ccc(=O)cc-5oc4c3)nc(OC3CCC(C)CC3C(C)C)n2)C(C(C)C)C1 (stereo not shown) [Compound IV] | fluoresces yellow-green | 
3 | N=C1C=CC(=C(c2ccc(N)cc2)c2ccc(N)cc2)C=C1 [pararosaniline] |  | 604-627 nm
4 | Cc1cc2nc3ccc(N(C)C)cc3[s+]c2cc1N.[Cl-] [toluidine blue O] |  | 660-700 nm
